Laboratory results: PubChem BioAssay AID1347076 (National Center for Advancing Translational Sciences (NCATS), 2019)
Hit rate of the full screen: of about 400,000 compounds, about 13,000 (3.2%) were called active. Inconclusive means that the source gave no clear call. Such entries were picked first, then a sample of the others. Calls follow the shape of the dose curve; as a rule, active = well fitted cell-killing curve with a large enough effect; inconclusive = small, poorly fitted or top-dose-only effect, or effect the other way; inactive = flat fitted curve, though single readings scatter. A potency beside an inconclusive call is a rough fit, not a confirmed value.

assay: qHTS assay for MDR1-selective chemotherapeutics: Primary screen using the drug-selected MDR subline cells KB-V1; conditions: KB-V1 MDR cells viability, CellTiter-Glo, 72 h; activity change, negative = cytotoxicity: at 46.1 µM (top of the series); also: nearly all actives have a fitted effect of over 60% in size
Method in brief: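 In this primary screen, KB-V1 cells overexpressing P-gp are incubated with library compounds (lowest to highest concentration) for 72 h at 37 degrees C before a luminescent ATP viability read.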
% is scaled to controls: 0 for no effect and ±100 for the full control effect; potency is read from the fitted curve at half-maximal effect.

Structure (SMILES) | Potency | activity change, negative = cytotoxicity
C=C1CCN([C@@H](CC(C)C)C(=O)N2CCCC2)S(=O)(=O)c2ccccc21 | inconclusive: 18.4 µM [rising, partial curve] | 
COCCNC(=O)c1ccccc1NC(=O)c1ccccc1N(C)S(=O)(=O)c1ccc(C)cc1 | inconclusive: 13 µM [cytotoxic, partial curve] | 
CC1(C)C2CCC1(C)C(OC(=O)CNc1ccccc1)C2 (configuration not stated) |  | inactive: -2.33%
CC(C)c1cc(Cn2c3ccccc3c(=O)n2C(C)Cn2cc(C3CC3)nn2)on1 (configuration not stated) | inconclusive: 20.6 µM [cytotoxic, partial curve] | 
CN(C)c1ccc(/C=N\Nc2ccc([N+](=O)[O-])cc2[N+](=O)[O-])cc1Cl |  | inactive: -16.2%
O=C(CSc1nc2c([nH]c3ccccc32)c(=O)n1-c1ccc(F)cc1)N1CCCc2ccccc21 | inconclusive: 20.6 µM [rising, single point] | 
CCN=C1NN=C(c2cc(C)n(CCc3ccccc3)c2C)CS1 | inconclusive: 23.1 µM [cytotoxic, partial curve, poor fit] | 
CCN(CC(=O)Nc1ccccc1OC)C(=O)C1CC2C=CC1C2 (configuration not stated) | inconclusive: 20.6 µM [cytotoxic, partial curve, poor fit] | 
CC(O)CNCCOc1ccccc1-c1ccccc1 (configuration not stated) | inconclusive: 16.4 µM [cytotoxic, single point] | 
CCc1noc(C)c1C(=O)NCCc1ccc(OC)c(OC)c1 | inconclusive: 18.4 µM [cytotoxic, single point] | 
CCOc1ccccc1NC(=O)Cn1c(=O)n(-c2ccc(OC)cc2OC)c(=O)c2c(C)c(C(=O)N(CC)CC)sc21 | inconclusive: 8.2 µM [cytotoxic, partial curve, poor fit] | 
CC(C)(C)C1CCC2(CC1)C(C#N)=C(SCC(=O)NC1CCCCC1)NC(=O)C2C#N (configuration not stated) | inconclusive: 18.4 µM [cytotoxic, single point] | 
Cc1n[nH]c(=O)c2c(NC(=O)CSc3nncn3C(C)C)oc(C)c12 | inconclusive: 20.6 µM [rising, single point] | 
O=C(O)c1cccc(Nc2c3ccccc3nc3ccccc23)c1 |  | inactive: 18.5%
COC(=O)c1sc(-c2cccs2)cc1N | inconclusive: 29.1 µM [rising, single point] | 
Cc1ccc(CNC(=O)COC(=O)c2ccc(Br)cc2)cc1 |  | inactive: -3.28%
COC(=O)c1cc(-c2ccc(C)cc2)n[nH]1 | inconclusive: 0.146 µM [cytotoxic, full curve] | 
Cc1ccc(C)c(OCc2cc(C(=O)N(C)Cc3nccn3C)no2)c1 | active: 13 µM | 
Cn1c(SCC(=O)Nc2ccccc2F)nnc1-c1cc2ccccc2o1 | inconclusive: 3.66 µM [cytotoxic, full curve] | 
CCC(C)NC(=S)Nc1ccc(C(=O)OC)cc1 (configuration not stated) | inconclusive: 13 µM [cytotoxic, partial curve] | 
CS(=O)(=O)c1nc(S(=O)(=O)c2ccc(Cl)cc2)c(NCCN2CCOCC2)s1 | inconclusive: 20.6 µM [cytotoxic, single point] | 
COc1ccc(-c2c(C)nn3c(-c4ccccc4)cc(-c4ccccc4)nc23)cc1OC |  | inactive: 5.04%
Cc1ccc2c(c1)c1c3n2CCN(C(=O)CN2CCN(C)CC2)C3CCC1 (configuration not stated) | active: 20.6 µM | 
CCN1CCN(C(=O)CCc2nc3ccccc3n2-c2ccccc2)CC1 | inconclusive: 8.2 µM [cytotoxic, partial curve] | 

Some of the entries above in a different format.

| Structure (SMILES) | Potency | activity change, negative = cytotoxicity |
| --- | --- | --- |
| Cn1c(SCC(=O)Nc2ccccc2F)nnc1-c1cc2ccccc2o1 | inconclusive: 3.66 µM [cytotoxic, full curve] |  |
| CCC(C)NC(=S)Nc1ccc(C(=O)OC)cc1 (configuration not stated) | inconclusive: 13 µM [cytotoxic, partial curve] |  |

(further entries)

Structure (SMILES) | Potency | activity change, negative = cytotoxicity
CCCCCCC[n+]1ccc(/C=C/c2c(C)[nH]c3ccccc23)c2ccccc21 | inconclusive: 29.1 µM [cytotoxic, single point] | 
Clc1ccc(CSc2ccc(-c3cccnc3)nn2)cc1 | inconclusive: 0.092 µM [cytotoxic, full curve] | 
CN(C)c1ccc(NC(=O)Cn2c(=O)n(Cc3ccccc3)c(=O)c3ccccc32)cc1 | inconclusive: 5.17 µM [cytotoxic, full curve] | 
CCN(CC)S(=O)(=O)c1ccc(OC)c(NC(=S)Nc2ccc(C)c(C)c2)c1 | active: 18.4 µM | 
COc1ccccc1NC(=O)CSc1ccc(-c2ccc(-n3ccnc3)cc2)nn1 | inconclusive: 10.3 µM [cytotoxic, partial curve, poor fit] | 
O=C(Nc1ccccc1)N1CC=C(c2ccc(F)cc2)CC1 | inconclusive: 6.51 µM [cytotoxic, partial curve] | 
CC(C)CC(=O)Nc1ccc(S(=O)(=O)NCc2ccco2)cc1 | inconclusive: 23.1 µM [cytotoxic, single point] | 
COc1ccc(N2CCN(C(=O)CCCCCn3c(=S)[nH]c4ccc(N5CCOCC5)cc4c3=O)CC2)cc1 | inconclusive: 9.2 µM [cytotoxic, partial curve, poor fit] | 
COc1cc2c(cc1OC)C(C)N(C(C)=O)CC2 (configuration not stated) |  | inactive: -13.1%
CSc1oc(-c2ccc(F)cc2)nc1S(=O)(=O)c1ccc(F)cc1 | inconclusive: 32.6 µM [rising, partial curve, poor fit] | 
CN(Cc1ccc(F)cc1)C(=O)CN1CCN(S(=O)(=O)c2ccc3c(c2)OCCCO3)CC1 | inconclusive: 14.6 µM [cytotoxic, partial curve] | 
O=C(OC1CCCCC1=O)c1cc(Cl)ccc1[N+](=O)[O-] (configuration not stated) | inconclusive: 20.6 µM [rising, partial curve, poor fit] | 
COC(=O)c1ccc2c(=O)n(-c3ccccc3)c(SCN3C(=O)c4ccccc4C3=O)nc2c1 | inconclusive: 29.1 µM [cytotoxic, single point] | 
O=C(CCC1CCCCC1)N1CCN(Cc2ccc3c(c2)OCO3)CC1 | active: 23.1 µM | 
Cc1ccc(S(=O)(=O)CCC(=O)c2ccc(O)cc2O)cc1 |  | inactive: -13.7%
S=C(NC1CC1)N1CCN(C(=S)NC2CC2)CC1 | inconclusive: 18.4 µM [rising, single point] | 
COc1ccc(-c2cc(-c3nnc(COC(=O)c4ccncc4)o3)c3ccccc3n2)cc1OC |  | inactive: -17.3%
COc1ccc(C(C)=O)c(Oc2nc(CN3CCOCC3)nc3scc(-c4cccs4)c23)c1 | inconclusive: 20.6 µM [cytotoxic, single point] | 
CCOC(=O)c1cccnc1SC(CC)C(=O)N1CCOCC1 (configuration not stated) | inconclusive: 10.3 µM [cytotoxic, partial curve] | 
Cc1cc(C(=O)NNc2ccc(C)c(C)c2)no1 | inconclusive: 0.0411 µM [rising, full curve] | 
CCOc1cccc(-c2nn3c(-c4ccccn4)nnc3s2)c1 | active: 5.17 µM | 
CCC(=O)c1ccc(OCCn2cnc3ccccc32)cc1 | active: 20.6 µM | 
Cc1cccc(NC(=O)CSc2nnnn2C)n1 | inconclusive: 29.1 µM [rising, single point] | 
O=C(Nc1ccccn1)C1CCCN(c2ncnc3c2nc2n3CCCCC2)C1 (configuration not stated) |  | inactive: -33%

Some of the entries above, set out differently:
Structure (SMILES),Potency,"activity change, negative = cytotoxicity"
CCC(=O)c1ccc(OCCn2cnc3ccccc32)cc1,active: 20.6 µM,
Cc1cccc(NC(=O)CSc2nnnn2C)n1,"inconclusive: 29.1 µM [rising, single point]",
O=C(Nc1ccccn1)C1CCCN(c2ncnc3c2nc2n3CCCCC2)C1 (configuration not stated),,inactive: -33%

Carrying on:

Structure (SMILES) | Potency | activity change, negative = cytotoxicity
Cc1ccc(NC(=O)C2(c3ccccc3)CCCC2)nc1 | inconclusive: 29.1 µM [cytotoxic, single point] | 
CCC12CN3CC(C)(CN(C1)C3c1c(C)n(C)c3ccccc13)C2=O (configuration not stated) |  | inactive: 23.9%
CCN(CC)C(=O)CSc1nnc2nnc3cc(OC)ccc3n12 | inconclusive: 23.1 µM [cytotoxic, single point] | 
CC(C)c1cc(C(=O)N2CCCC(C(=O)c3ccc4ccccc4c3)C2)on1 (configuration not stated) |  | inactive: -5.38%
CC1(C(=O)NCc2cccc3ccccc23)CCN1Cc1ccc(-c2ccccc2)o1 (configuration not stated) | inconclusive: 29.1 µM [cytotoxic, single point] | 
CC(NCc1ccccc1O)c1ccccc1 (configuration not stated) |  | inactive: 19.3%
C=CCN1C(=O)N(c2ccc(F)cc2)C(=O)C1CC(=O)Nc1ccc(Cl)cc1 (configuration not stated) |  | inactive: -1.62%
COc1ccc(NC(=O)N(Cc2nnc3n2CCCCC3)c2ccc(OC)c(Cl)c2)cc1 |  | inactive: 12.5%
O=[N+]([O-])c1ccc(C=NN2CCOCC2)s1 |  | inactive: -23.7%
Cc1ccc(-c2nc(N)sc2-c2ccccc2)cc1C | inconclusive: 23.1 µM [cytotoxic, single point] | 
Cc1ccc(CNCc2c(C(=O)O)c(C)n(Cc3ccc(C)cc3)c2C)cc1 | inconclusive: 10.3 µM [rising, partial curve, poor fit] | 
CCn1c(COc2c(C)cccc2C)nnc1SCC(=O)N1CCN(c2ccccc2)CC1 | inconclusive: 29.1 µM [cytotoxic, single point] | 
O=C(Nc1c(C(=O)c2ccc(F)cc2)oc2ccccc12)c1cc(-c2ccccc2)on1 |  | inactive: 2.76%
O=C(NCc1ccccn1)c1ccc(/C=N/O)nc1 | inconclusive: 16.4 µM [rising, single point] | 
CCOC(=O)C1CCCN(CC(=O)Nc2c(C(=O)OC)[nH]c3ccccc23)C1 (configuration not stated) | inconclusive: 18.4 µM [cytotoxic, single point] | 
Cc1ccc(CNCC(O)(c2ccccc2)c2ccc(F)cc2)cc1 (configuration not stated) | active: 18.4 µM | 
O=C(CSc1cn[nH]n1)Nc1ccccc1C(F)(F)F |  | inactive: -1.17%
COc1cccc(CNC(=O)COc2ccc(C(=O)c3ccccc3)cc2)c1 | active: 20.6 µM | 
CCN(CC)c1ncnc2c1nnn2C |  | inactive: 8.78%
CCCCCCn1cc(C(=O)O)c(=O)c2ccccc21 | inconclusive: 20.6 µM [cytotoxic, single point] | 
C=CCN(CC=C)Cc1cc(=O)oc2cc(C)c(C)cc12 | inconclusive: 29.1 µM [cytotoxic, single point] | 
Cc1ccc(-c2csc(NCCn3c(-c4ccncc4)nc4ccccc43)n2)cc1 | active: 20.6 µM | 
CCc1cc(-c2onc(C)c2-c2cscn2)c(O)cc1OC | inconclusive: 23.1 µM [cytotoxic, single point] | 
O=C1COc2ccc(S(=O)(=O)N3CCC(C(=O)NCc4ccc(F)cc4)CC3)cc2N1 | inconclusive: 11.6 µM [rising, partial curve] | 
